Source: patent US7501552 (GENPHARM INTERNATIONAL, dated 2009)
These are yes or no findings as the source states them, for the method shown. Some results given as binding are weak or reduced against the parent protein; the word gives no strength.

Protein sequences, listed by entry. Tags and fused reporters are not part of them. Residues count along the entry.
UniProt P79185, residues 26-458: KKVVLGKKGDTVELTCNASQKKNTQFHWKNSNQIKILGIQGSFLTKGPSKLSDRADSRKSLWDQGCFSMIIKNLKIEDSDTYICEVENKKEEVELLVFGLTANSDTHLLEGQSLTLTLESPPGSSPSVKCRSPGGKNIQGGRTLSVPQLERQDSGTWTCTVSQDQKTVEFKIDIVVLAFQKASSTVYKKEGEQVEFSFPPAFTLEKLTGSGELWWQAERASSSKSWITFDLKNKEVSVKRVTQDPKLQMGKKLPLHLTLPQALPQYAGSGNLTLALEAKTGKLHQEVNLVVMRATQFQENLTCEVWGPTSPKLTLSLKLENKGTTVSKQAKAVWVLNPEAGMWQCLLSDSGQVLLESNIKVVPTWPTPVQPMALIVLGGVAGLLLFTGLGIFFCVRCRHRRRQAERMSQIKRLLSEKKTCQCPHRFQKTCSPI
UniProt P16003, residues 26-458: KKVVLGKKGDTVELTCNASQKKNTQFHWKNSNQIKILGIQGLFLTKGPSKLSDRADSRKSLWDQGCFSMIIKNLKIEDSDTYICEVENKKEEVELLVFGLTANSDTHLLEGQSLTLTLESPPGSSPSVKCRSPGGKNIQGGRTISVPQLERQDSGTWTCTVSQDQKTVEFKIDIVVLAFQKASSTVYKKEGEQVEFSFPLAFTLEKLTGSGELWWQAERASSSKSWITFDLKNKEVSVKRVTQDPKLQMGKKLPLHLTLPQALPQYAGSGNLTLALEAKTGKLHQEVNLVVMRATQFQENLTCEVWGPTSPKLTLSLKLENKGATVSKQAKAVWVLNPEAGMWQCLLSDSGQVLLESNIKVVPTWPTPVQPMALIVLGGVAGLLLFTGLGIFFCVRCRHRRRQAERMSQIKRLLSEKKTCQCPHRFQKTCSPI

Columns and labels:
[1] = biological target: T1, chimpanzee CD4 on lymphocytes (chimpanzee, UniProt P16004 26-458); assay: flow cytometry on peripheral blood lymphocytes
T1 construct: whole, on cells; also called chimpanzee CD4 cells
Experimental: (§1) It is further desirable for some purposes that the animal be a non-human primate that expresses CD4 comprising a cross-reactive epitope with human CD4 such that it is recognized by the monoclonal antibody. […] Peripheral blood lymphocytes were isolated from whole blood of chimpanzee, rhesus, and cynomolgus monkeys. […] The stained cells were then analyzed by flow cytometry to determine if each of the human monoclonal antibodies bound to endogenous CD4 on the surface of lymphocytes from each of these three non-human primates.

[2] = biological target: T2, cynomolgus monkey CD4 on lymphocytes (cynomolgus monkey, UniProt P79185 26-458); assay: flow cytometry on peripheral blood lymphocytes
T2 construct: whole, on cells; also called cynomolgus CD4 cells
Experimental: as §1

[3] = biological target: T3, rhesus monkey CD4 on lymphocytes (rhesus monkey, UniProt P16003 26-458); assay: flow cytometry on peripheral blood lymphocytes
T3 construct: whole, on cells; also called rhesus CD4 cells
Experimental: as §1

[4] = biological target: native human CD4 on the cell surface (human) (UniProt P01730); assay: ELISA and flow cytometry on SupT1 cells
[5] = biological target: T1, chimpanzee CD4 on lymphocytes; assay: as found in Example 43 (flow cytometry)
[6] = biological target: T2, cynomolgus monkey CD4 on lymphocytes; assay: as found in Example 43 (flow cytometry)
[7] = biological target: T3, rhesus monkey CD4 on lymphocytes; assay: as found in Example 43 (flow cytometry)
[8] = biological target: T1, chimpanzee CD4 on lymphocytes; assay: MCF HuMAb on chimpanzee lymph node CD4+ cells, flow cytometry
[9] = biological target: T1, chimpanzee CD4 on lymphocytes; assay: ex vivo flow cytometry of chimpanzee inguinal lymph node lymphocytes after infusion of the mAb: FITC goat anti-human Fcγ on CD4+ cells
[10] = biological target: T2, cynomolgus monkey CD4 on lymphocytes; assay: restated in the half-life study
[11] = biological target: native human CD4 on the cell surface (human) (UniProt P01730); assay: flow cytometry on SupT1 cells
[12] = biological target: T2, cynomolgus monkey CD4 on lymphocytes; assay: as described in Example 43
[13] = biological target: native human CD4 on the cell surface (human) (UniProt P01730); assay: flow cytometry on CD4+ SupT1 cells, FITC goat anti-human Fcγ
[14] = biological target: T1, chimpanzee CD4 on lymphocytes; assay: ex vivo flow cytometry of chimpanzee PBMC after infusion of the mAb: FITC goat anti-human Fcγ on CD4+ cells
[15] = biological target: T2, cynomolgus monkey CD4 on lymphocytes; assay: flow cytometry of PBMC after infusion into cynomolgus monkeys
[16] = biological target: native human CD4 on the cell surface (human) (UniProt P01730); assay: flow cytometry on SupT1 cells preincubated with stain buffer, RPA-T4 or Leu-3a; supernatant 1:2, FITC goat anti-human Fcγ
[17] = biological target: T1, chimpanzee CD4 on lymphocytes; assay: flow cytometry of chimpanzee lymph node cells after infusion
[18] = biological target: native human CD4 on the cell surface (human) (UniProt P01730); assay: two-colour flow cytometry on human PBMC
[19] = biological target: T1, chimpanzee CD4 on lymphocytes; assay: flow cytometry of PBMC after infusion into chimpanzees, FITC-goat anti-human Fcγ
[20] = biological target: T2, cynomolgus monkey CD4 on lymphocytes; assay: ex vivo flow cytometry of cynomolgus PBMC after infusion of the mAb: FITC goat anti-human Fcγ on CD4+ (OKT4+) cells

Measured: binding

B1: 6G5 (antibody, human IgG1, V domains shown)
VH: QVQLQQWGAGLLKPSETLSLTCAVYGGSFSGYYWSWIRQPPGKGLEWIGEINHSGSTNYNPSLKSRVTISVDTSKNQFSLKLSSVTAADTAVYYCARVINWFDPWGQGTLVTVSS
VL: DIQMTQSPSSVSASVGDRVTITCRASQDISSWLAWYQHKPGKAPKLLIYAASSLQSGVPSRFSGSGSGTDFTLTISSLQPEDFATYYCQQANSFPYTFGQGTKLEIK
binds: [1] | [2] | [3] | [4] | [5] | [6] | [7] | [8] | [9] | [10] | [11] | [12] | [13] | [14] | [15] | [16] | [17] | [18] | [19] | [20]
